Test results published in paper PMC9918503.
No constants are given. Whether binding was seen depends on the method and setting. In cells and extracts the contact can be indirect. Here binding means that the protein was enriched with, or labelled near, the bait; the list need not be complete. Sequences can lack the tags named with a protein.

By UniProt entry, the sequences of proteins in these tests, tags left out.
UniProt Q96SB4: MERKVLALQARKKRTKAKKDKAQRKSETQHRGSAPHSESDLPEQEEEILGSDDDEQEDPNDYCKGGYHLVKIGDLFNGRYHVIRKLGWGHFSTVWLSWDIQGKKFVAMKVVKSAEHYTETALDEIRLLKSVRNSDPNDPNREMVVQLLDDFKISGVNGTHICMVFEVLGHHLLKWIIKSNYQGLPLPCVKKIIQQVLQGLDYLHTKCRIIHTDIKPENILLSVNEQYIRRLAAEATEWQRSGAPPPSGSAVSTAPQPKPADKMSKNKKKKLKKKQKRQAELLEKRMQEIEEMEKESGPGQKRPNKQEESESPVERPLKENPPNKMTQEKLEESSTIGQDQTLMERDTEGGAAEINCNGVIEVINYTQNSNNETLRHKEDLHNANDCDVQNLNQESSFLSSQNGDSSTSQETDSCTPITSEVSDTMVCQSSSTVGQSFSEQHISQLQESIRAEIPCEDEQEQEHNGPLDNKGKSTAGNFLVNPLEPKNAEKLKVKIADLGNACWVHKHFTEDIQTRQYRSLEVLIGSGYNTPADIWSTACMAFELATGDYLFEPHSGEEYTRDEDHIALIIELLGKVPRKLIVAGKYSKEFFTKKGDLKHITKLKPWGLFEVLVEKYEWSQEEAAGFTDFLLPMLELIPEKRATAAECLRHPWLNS

Molecular target: T1, CTDNEP1-myc (HEK293T cells) (UniProt O95476)
T1 sequence: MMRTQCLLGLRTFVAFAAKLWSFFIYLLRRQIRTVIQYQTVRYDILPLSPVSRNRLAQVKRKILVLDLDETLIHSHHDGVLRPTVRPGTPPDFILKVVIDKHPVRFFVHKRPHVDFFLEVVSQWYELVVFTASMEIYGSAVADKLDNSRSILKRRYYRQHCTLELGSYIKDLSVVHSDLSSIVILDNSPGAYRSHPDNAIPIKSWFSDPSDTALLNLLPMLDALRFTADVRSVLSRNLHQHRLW
Assay: affinity purification with mass spectrometry; immunoprecipitation for CTDNEP1-myc in CTDNEP1 enforced expression HEK293T cells, followed by mass spectrometry

binding: binds
Substance: SRPK1 (HEK293T cells) (from UniProt Q96SB4 1-655)
